± gives the uncertainty stated by the source. The uncertainty is large for many entries.
Assay: self-splicing fitness, log relative to wild type (ln ratio); higher = more splicing; Tetrahymena group I intron in knt gene, E. coli kanamycin selection, DiMSum; sequences stand for … in CUCUCU…GGAGGGAAAAGUUAUCAGGCAUGCACCUGGUAGCUAGUCUUUAAACCAAUAGAUUGCAUCGGUUUAAAAGGCAAGACCGUCAAAUUGCGGGAAAGGGGUCAACAGCCGUUCAGUACCAAGUCUCAGGGGAAACUUUGAGAUGGCCUUGCAAAGGGUAUGGUAAUAAGCUGACGGACAUGGUCCUAACCACGCAGCCAAGUCCUAAGUCAACAGAUCUUCUGUUGAUAUGGAUGCAGUUCACAGACUAAAUGUCGGUCGGGGAAGAUGUAUUCUUCUCAUAAGAUAUAGUCGGACCUCUCCUUAAUGGGAGCUAGCGGAUGAAGUGAUGCAACACUGGAGCCGCUGGGAACUAAUUUGUAUGCGAAAGUAUAUUGAUUAGUUUUGGAGUACUCGUGGUCG
Procedure, shortened: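 A randomised library covering all eight P1ex-region intron nucleotides was built with the intron in the knt kanamycin-resistance gene on pET-22b(+) and held in E. coli BL21(DE3). Cells were grown overnight at 37°C or 30°C on LB agar, with or without 25 μg/mL kanamycin, plus 100 μg/mL carbenicillin, 50 μM IPTG and 0.2% rhamnose, and pooled colonies were amplicon-sequenced on an Illumina HiSeq 2500. DiMSum fitness is the error-weighted combination of wild-type-normalised replicate fold changes, kanamycin versus none.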

Sequence: AAGUAGCAAUAUUACGUACU
- self-splicing fitness (ln) (30 °C): -0.863 ± 0.19
- self-splicing fitness (ln) (37 °C): -0.429 ± 0.19

Sequence: CCGGAGCAAUAUUACGCGCC
- self-splicing fitness (ln) (30 °C): -1.89 ± 0.32

Sequence: UUCCAGCAAUAUUACGGCCC
- self-splicing fitness (ln) (37 °C): -2.99 ± 0.61

Sequence: GCCCAGCAAUAUUACGACUG
- self-splicing fitness (ln) (30 °C): -4.23 ± 0.22
- self-splicing fitness (ln) (37 °C): -2.44 ± 0.19

Sequence: AUCGAGCAAUAUUACGGAAG
- self-splicing fitness (ln) (30 °C): -4.74 ± 0.72

Sequence: GCGCAGCAAUAUUACGCCCC
- self-splicing fitness (ln) (30 °C): -0.868 ± 1.4
- self-splicing fitness (ln) (37 °C): -0.307 ± 0.77

Sequence: ACAGAGCAAUAUUACGGAAC
- self-splicing fitness (ln) (30 °C): -4.05 ± 0.54

Sequence: CGGAAGCAAUAUUACGGAAG
- self-splicing fitness (ln) (30 °C): -4.64 ± 0.59

Sequence: GAGUAGCAAUAUUACGCCGU
- self-splicing fitness (ln) (30 °C): -3.29 ± 0.53

Sequence: UAGUAGCAAUAUUACGGAAG
- self-splicing fitness (ln) (30 °C): -4.64 ± 0.59

Sequence: GUAUAGCAAUAUUACGGAGC
- self-splicing fitness (ln) (37 °C): -2.08 ± 0.79

Sequence: GCUAAGCAAUAUUACGGGCC
- self-splicing fitness (ln) (30 °C): -3.12 ± 0.75

Sequence: UACGAGCAAUAUUACGCGUA
- self-splicing fitness (ln) (30 °C): -4.38 ± 1

Sequence: CUCGAGCAAUAUUACGCUCG
- self-splicing fitness (ln) (37 °C): -2.2 ± 1.1

Sequence: UUUCAGCAAUAUUACGCCCC
- self-splicing fitness (ln) (37 °C): -2.3 ± 1.1

Sequence: GUUUAGCAAUAUUACGCCGA
- self-splicing fitness (ln) (37 °C): -1.78 ± 0.58

Sequence: GCCAAGCAAUAUUACGAGUG
- self-splicing fitness (ln) (30 °C): -2.32 ± 0.087
- self-splicing fitness (ln) (37 °C): -1.72 ± 0.093

Sequence: CUAUAGCAAUAUUACGACCU
- self-splicing fitness (ln) (37 °C): -1.54 ± 1.2

Sequence: UGGGAGCAAUAUUACGCGUC
- self-splicing fitness (ln) (37 °C): -0.00228 ± 0.74

Sequence: AGCUAGCAAUAUUACGCCGA
- self-splicing fitness (ln) (37 °C): -0.779 ± 0.54

Sequence: CUAAAGCAAUAUUACGCCAC
- self-splicing fitness (ln) (37 °C): -0.735 ± 0.54

Sequence: GUGGAGCAAUAUUACGCCCA
- self-splicing fitness (ln) (30 °C): -0.828 ± 0.82
- self-splicing fitness (ln) (37 °C): -2.48 ± 1.1

Sequence: UCGAAGCAAUAUUACGGGGC
- self-splicing fitness (ln) (30 °C): -4.36 ± 1
- self-splicing fitness (ln) (37 °C): -3.09 ± 0.52

Sequence: UCCCAGCAAUAUUACGGCCC
- self-splicing fitness (ln) (30 °C): -2.36 ± 1.2

Sequence: UAUGAGCAAUAUUACGAACU
- self-splicing fitness (ln) (30 °C): -3.91 ± 0.6

Sequence: CUGUAGCAAUAUUACGAUUU
- self-splicing fitness (ln) (30 °C): -3.44 ± 0.6

Sequence: CUCGAGCAAUAUUACGUUAC
- self-splicing fitness (ln) (30 °C): -4.9 ± 0.72

Sequence: UGUGAGCAAUAUUACGCAAG
- self-splicing fitness (ln) (30 °C): -3.34 ± 0.74
- self-splicing fitness (ln) (37 °C): -2.95 ± 0.61

Sequence: CGAUAGCAAUAUUACGCUAA
- self-splicing fitness (ln) (30 °C): -4.17 ± 0.52

Sequence: GCAAAGCAAUAUUACGGUUC
- self-splicing fitness (ln) (30 °C): -2.17 ± 0.089
- self-splicing fitness (ln) (37 °C): -0.948 ± 0.11

Sequence: CCGGAGCAAUAUUACGCACU
- self-splicing fitness (ln) (30 °C): -4.36 ± 0.52

Sequence: UUGUAGCAAUAUUACGAACC
- self-splicing fitness (ln) (37 °C): -2.39 ± 1.1

Sequence: AUCUAGCAAUAUUACGGGCG
- self-splicing fitness (ln) (30 °C): -0.656 ± 0.1
- self-splicing fitness (ln) (37 °C): -0.967 ± 0.11

Sequence: GUUGAGCAAUAUUACGAGGU
- self-splicing fitness (ln) (37 °C): -3.15 ± 0.52

Sequence: GCUCAGCAAUAUUACGCCAA
- self-splicing fitness (ln) (37 °C): -3.18 ± 1

Sequence: GCCCAGCAAUAUUACGAUCC
- self-splicing fitness (ln) (30 °C): -0.561 ± 0.13
- self-splicing fitness (ln) (37 °C): -0.336 ± 0.19

Sequence: GACGAGCAAUAUUACGUUAC
- self-splicing fitness (ln) (30 °C): -4.22 ± 0.52

Sequence: CCGGAGCAAUAUUACGUGAA
- self-splicing fitness (ln) (30 °C): -3.66 ± 0.52

Sequence: GUUGAGCAAUAUUACGUCCA
- self-splicing fitness (ln) (37 °C): -3.14 ± 0.52

Sequence: UUUAAGCAAUAUUACGCAAC
- self-splicing fitness (ln) (37 °C): -2.89 ± 1.1

Sequence: GAAUAGCAAUAUUACGCUUC
- self-splicing fitness (ln) (30 °C): -4.01 ± 0.53

Sequence: GCCGAGCAAUAUUACGCGCG
- self-splicing fitness (ln) (37 °C): -2.2 ± 0.51

Sequence: GUCUAGCAAUAUUACGCAAG
- self-splicing fitness (ln) (30 °C): -3.26 ± 0.68

Sequence: UUUCAGCAAUAUUACGCCAC
- self-splicing fitness (ln) (30 °C): -4.4 ± 0.74
- self-splicing fitness (ln) (37 °C): -2.41 ± 0.76

Sequence: GAAAAGCAAUAUUACGAUGC
- self-splicing fitness (ln) (30 °C): -0.709 ± 0.08
- self-splicing fitness (ln) (37 °C): -0.503 ± 0.1

Sequence: UUGGAGCAAUAUUACGAUCU
- self-splicing fitness (ln) (30 °C): -2.06 ± 0.66
- self-splicing fitness (ln) (37 °C): -2.47 ± 1.1

Sequence: GUUAAGCAAUAUUACGGACC
- self-splicing fitness (ln) (30 °C): -0.86 ± 1.4
- self-splicing fitness (ln) (37 °C): -0.693 ± 1.4

Sequence: GAGAAGCAAUAUUACGGAGG
- self-splicing fitness (ln) (30 °C): -2.75 ± 0.64

Sequence: CGAUAGCAAUAUUACGUUUC
- self-splicing fitness (ln) (30 °C): -4.38 ± 0.6

Sequence: CGGGAGCAAUAUUACGACCU
- self-splicing fitness (ln) (30 °C): -0.87 ± 0.14
- self-splicing fitness (ln) (37 °C): -0.864 ± 0.18

Sequence: GGAUAGCAAUAUUACGUCAU
- self-splicing fitness (ln) (30 °C): -2.02 ± 0.11
- self-splicing fitness (ln) (37 °C): -0.395 ± 0.12
